Laboratory results: PubChem BioAssay AID652272 (Drosophila RNAi Screening Center, 2013)

Purpose: 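Genes whose knock-down decreases or increases Hedgehog reporter output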 (primary screen)
Cells: Drosophila clone 8 (Cl8) cells
Reagent: long dsRNA against Drosophila genes
Measured: 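Firefly light from a Hedgehog-responsive ptc promoter reporter and Renilla reference light, both read on a plate reader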
Reading the numbers: firefly Hh reporter signal: higher = more ptc reporter light; Renilla reference signal: higher = more Renilla control light
Active means: 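Hit when the z-score averaged over two replicates is under -2 or over +3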
Calls: active = hit: reporter lowered or raised; inactive = not a hit
In all, the deposit lists about 21,000 reagents; shown is a random part of those with a known target gene and a result. Over the whole deposit, 503 (2.4%) are marked active. 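Raw plate light values, not normalised; calls rest on replicate z-scores that were not deposited; hits include reporter decreases as well as increases.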 The record does not give: the amount of reagent, the time to read-out.

CG31869 [DRSC02582] — firefly Hh reporter signal, replicate 1: 1.14e5; firefly Hh reporter signal, replicate 2: 69908; Renilla reference signal, replicate 1: 3277; Renilla reference signal, replicate 2: 7106; Outcome: inactive
CG31869 [DRSC02674] — firefly Hh reporter signal, replicate 1: 1.41e5; firefly Hh reporter signal, replicate 2: 65350; Renilla reference signal, replicate 1: 3708; Renilla reference signal, replicate 2: 6661; Outcome: inactive
CG13744 [DRSC06415] — firefly Hh reporter signal, replicate 1: 1.09e5; firefly Hh reporter signal, replicate 2: 65718; Renilla reference signal, replicate 1: 2976; Renilla reference signal, replicate 2: 6043; Outcome: inactive
CCHa1 (CCHamide-1) [DRSC14821] — firefly Hh reporter signal, replicate 1: 55440; firefly Hh reporter signal, replicate 2: 54049; Renilla reference signal, replicate 1: 1302; Renilla reference signal, replicate 2: 1234; Outcome: inactive
Gpa2 (Glycoprotein hormone alpha 2) [DRSC21071] — firefly Hh reporter signal, replicate 1: 55745; firefly Hh reporter signal, replicate 2: 1.43e5; Renilla reference signal, replicate 1: 1068; Renilla reference signal, replicate 2: 6717; Outcome: inactive
CG15563 [DRSC15101] — firefly Hh reporter signal, replicate 1: 1.89e5; firefly Hh reporter signal, replicate 2: 97024; Renilla reference signal, replicate 1: 6547; Renilla reference signal, replicate 2: 853; Outcome: inactive
Ldh (Lactate dehydrogenase) [DRSC11198] — firefly Hh reporter signal, replicate 1: 40129; firefly Hh reporter signal, replicate 2: 63845; Renilla reference signal, replicate 1: 4458; Renilla reference signal, replicate 2: 4986; Outcome: inactive
e(y)2 (enhancer of yellow 2) [DRSC19640] — firefly Hh reporter signal, replicate 1: 56806; firefly Hh reporter signal, replicate 2: 1.79e5; Renilla reference signal, replicate 1: 2091; Renilla reference signal, replicate 2: 7355; Outcome: inactive
GEFmeso (Guanine nucleotide exchange factor in mesoderm) [DRSC06748] — firefly Hh reporter signal, replicate 1: 90486; firefly Hh reporter signal, replicate 2: 78316; Renilla reference signal, replicate 1: 3757; Renilla reference signal, replicate 2: 3415; Outcome: inactive
GEFmeso (Guanine nucleotide exchange factor in mesoderm) [DRSC06940] — firefly Hh reporter signal, replicate 1: 1.05e5; firefly Hh reporter signal, replicate 2: 53120; Renilla reference signal, replicate 1: 2800; Renilla reference signal, replicate 2: 4057; Outcome: inactive
CG8492 [DRSC10984] — firefly Hh reporter signal, replicate 1: 60946; firefly Hh reporter signal, replicate 2: 8.31e5; firefly Hh reporter signal, replicate 3: 86096; Renilla reference signal, replicate 1: 5378; Renilla reference signal, replicate 2: 4571; Outcome: inactive
CG31886 [DRSC03248] — firefly Hh reporter signal, replicate 1: 89300; firefly Hh reporter signal, replicate 2: 85200; Renilla reference signal, replicate 1: 3357; Renilla reference signal, replicate 2: 3462; Outcome: inactive
Sfmbt (Scm-related gene containing four mbt domains) [DRSC02552] — firefly Hh reporter signal, replicate 1: 89689; firefly Hh reporter signal, replicate 2: 47707; Renilla reference signal, replicate 1: 3908; Renilla reference signal, replicate 2: 2530; Outcome: inactive
Klp31E (Kinesin-like protein at 31E) [DRSC03354] — firefly Hh reporter signal, replicate 1: 88918; firefly Hh reporter signal, replicate 2: 54676; Renilla reference signal, replicate 1: 4817; Renilla reference signal, replicate 2: 2432; Outcome: inactive
